# Reference: the supplement of paper PMC10338343
# ± gives the standard deviation. The list shows a part of the results, in another mix than the full data. Many entries were measured with a wide error.
# Test system: MIWI (PIWIL1) piRISC loaded with piRNA #1 (30 nt)
# Assay: pre-steady-state target cleavage rate (min^-1); MIWI and MILI are mouse PIWI proteins and EfPiwi is from a freshwater sponge; tags in brackets are library labels; higher = faster piRNA-guided slicing of the target
# Settings: guide: piRNA #1 5'p-UGAGGUAGUAGGUUGUAUAGUAUCCAGAGG; auxiliary factor: 500 nM mouse GTSF1
# Summary of the method: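 In this Cleave-'n-Seq assay, uncleaved targets were sequenced and normalised to depth and to weakly complementary targets. They came from a transcribed, DNA-blocked target RNA library […] mixed with 1 nM active affinity-purified piRISC carrying one synthetic guide, with or without 500 nM GTSF1 partner protein, in HEPES–potassium acetate buffer at 33 °C for 0–8 or 0–960 min. After three trials were pooled and k3 was capped at 0.0001 min^-1, the pre-steady-state cleavage rate was obtained from a burst-and-steady-state fit.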
# 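Also: 1 nM active piRISC with 0.1 nM target library at 33 °C single turnover.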
row,Sequence,pre-steady-state target cleavage rate
1,GGUCUGGUUACUUUACAACCUACUACCUCA,1.69 ± 0.13
2,GGAGACCUAACUAUAGUUCCUACUACCUCA,0.000299 ± 0.013
3,GGACUGGAUACUAUACAACCUACUACCUCC [g2:g27:cont:t1C],1.42 ± 0.088
4,GGACUGGAUACUAUACAACCUACUAGGAGA [g6:g27:cont:t1A],0.000121 ± 0.026
5,CCUCUGGAUACUAUACAACCUACUACACUCA,0.874 ± 0.073
6,GGAGAGGAUACGUAUACAACCUACUACCUCA,0.484 ± 0.047
7,GGUCUGGAUACUAUAUAACCUACUACCUCA,1.86 ± 0.1
8,GGAGACCUAUGUAUACUACCUACUACCUGA,0.00104 ± 0.0032
9,GGAGACCUAUGAAUACAAGCUACUACCUGA,0.000321 ± 0.0069
10,GGUCUGGAUACUAUACAACCUAGUUCCUCA,0.000962 ± 0.0052
11,GGUCUGGAUACUAUACAACCUAUACCUCA,0.00158 ± 0.0035
12,CCUCUGGAUACUAUACAACCUACUACCUCA [g2:g30:cont:t1A],1.96 ± 0.12
13,GGAGACCUAUGAAUACUAGCUACUACCUCA,< 0.0001
14,GCUCUGGAUACUAUACAACCUACUAUCUCA,2.32 ± 0.24
15,GGAGACCUAUGAUAUGUUCCUCCUACCUCA,0.000167 ± 0.015
16,GGAGUGGAUACUAUACUACCUACAACCUCA,0.428 ± 0.052
17,GGAGACCUAUGAAUACAAGCUACUACCUCA,0.00163 ± 0.0034
18,GGACUGGAUUCUAUACAACCUACUAGCUCA,0.118 ± 0.022
19,GGUCUGGAUACUAUACAACCUACUUCCUGA,0.000393 ± 0.0093
20,GCUCUGGAUACCAUACAACCUACUACCUCA,0.756 ± 0.059

# Two entries picked at random from the list so far, as already listed:
row,Sequence,pre-steady-state target cleavage rate
16,GGAGUGGAUACUAUACUACCUACAACCUCA,0.428 ± 0.052
8,GGAGACCUAUGUAUACUACCUACUACCUGA,0.00104 ± 0.0032

# Next part

row,Sequence,pre-steady-state target cleavage rate
1,GGACUGGAUACUAUACAACUUACUACCUCA,0.518 ± 0.023
2,GGAGACCUAUGAUAACAACCUAUCUACCUCA,0.00048 ± 0.0073
3,GCUCUGGAUACUAUACAACCUAUCUACCUCA,0.356 ± 0.028
4,GGAGACCUAUGAAUACAACCUACUACCUACA,0.00143 ± 0.0035
5,GGUCUGGAUACUAUACAACCUACUAGCUGA,0.000554 ± 0.0069
6,GGACUGGAUACUAUACUAACCUACUACCUCA,0.000131 ± 0.034
7,GGAGACCUAUGAUAUGUUCGUACUACCUCA,0.000124 ± 0.013
8,CCUCUGGAUACUAUACAACCACUACCUCA,0.033 ± 0.0096
9,GGAGACCUAUGAUUACAACCUACUCACCUCA,0.00128 ± 0.0044
10,CCUCUGCAUACUAUACAACCUACUACCACA,2.37 ± 0.19
11,GGAGACCUAUGAUAUGUACCUACUACGAGA,0.000185 ± 0.039
12,GGUCUGGAUACUAUACAUACCUACUACCUCA,0.000515 ± 0.014
13,GCUCUGGAUACUAUACAACCUACUACUCA,1.64 ± 0.14
14,CCUCUGGAUACUAUUCAACCUAGUACCUCA,0.085 ± 0.021
15,GGACUGGAUACUAUACACACCUACUACCUCA,0.000323 ± 0.029
16,GGAGACCUAUGAUAACAACCUACUACCUUCA,0.000351 ± 0.0057
17,CCUCUGGAUACUAUACAACCUACAACCUCA,1.56 ± 0.1
18,GCUCUGGAUACUAUACAACCUACGACCUCA,1.22 ± 0.083
19,GCUCUGGAUACUUAUACAACCUACUACCUCA,1.53 ± 0.084
20,GCUCUGGAUACUAUACAACCUUGAACCUCA,0.00263 ± 0.0027
